Our source for the survivor count and T/C values is PubChem BioAssay AID248 (DTP/NCI, 2004).

The list does not hold the whole screen: it is rich in T/C values a quarter to a half above the control, in often repeated tests (any T/C) and in doses without a T/C. Other doses and runs of a compound stand elsewhere. T/C gives the treated animals as a percentage of the vehicle group. Some entries give survivors of the animals treated and no T/C: the source holds a T/C of zero for them, seemingly a mark for toxic or unscored doses. Some survivor counts are full or nearly so, which does not show that the dose was tolerated: the source hardly ever lists a survival T/C far under the control, and the zero likely stands for such cases as well. Survivors were counted at the toxicity check, usually on the fifth day, unless a day is given; later deaths do not show. Schedules are NCI's codes, read here as Q, the interval in days (D) or hours (H), X, the number of doses. For survival time, the PubChem record calls one and a half times the control and up active, and a quarter to a half above the control has no call in these data; cut-offs in other NCI protocols can differ.

In this test the test system is L1210 leukemia ip in BDF1 mice, survival T/C. In words: NCI In Vivo Anticancer Drug Screen. Data for tumor model L1210 Leukemia (intraperitoneal) in B6D2F1 (BDF1) mice. Conditions: T/C endpoint: mean survival time, higher T/C = longer survival.
The mark [1] stands for this setting: dose: 100.0 mg/kg/injection, schedule: Q01DX009 (ip), vehicle: saline.
Setting [2] is: dose: 200.0 mg/kg/injection, schedule: Q01DX009 (ip), vehicle: saline.
[3] abbreviates: dose: 400.0 mg/kg/injection, schedule: Q01DX001 (ip), vehicle: saline.

Consider `O=C(NC(=S)Nc1ccc(F)cc1)c1ccccc1F`, for which the survivor count runs as follows: (dose: 200.0 mg/kg/injection, schedule: Q01DX009 (ip), vehicle: gum acacia) 3 of 6; (dose: 400.0 mg/kg/injection, schedule: Q01DX009 (ip), vehicle: gum acacia) 0 of 6.
`CC(C)C[As](C)(=O)O`: under setting [1], the T/C was 132 % of control. For the same compound, the survivor count by setting is: under setting [2], 2 of 6; (dose: 400.0 mg/kg/injection, schedule: Q01DX009 (ip), vehicle: saline) 0 of 6.
Turning to `CC(=O)Oc1c(N)c(C)cc(C)c1F`, the survivor count runs as follows: (dose: 50.0 mg/kg/injection, schedule: Q01DX001 (ip), vehicle: Klucel (hydroxypropylcellulose) (HPC)) 2 of 6; (dose: 100.0 mg/kg/injection, schedule: Q01DX001 (ip), vehicle: Klucel (hydroxypropylcellulose) (HPC)) 5 of 6; (dose: 200.0 mg/kg/injection, schedule: Q01DX001 (ip), vehicle: Klucel (hydroxypropylcellulose) (HPC)) 0 of 6.
For `C=C1C(=O)O[C@H]2C1[C@H](OC(=O)/C(C)=C\COC(C)=O)C[C@]1(CO1)[C@@H]1[C@H](O)[C@H]3O[C@@]3(C)[C@@H]12` (stereo partly drawn), the survivor count is reported as 1 of 3 (dose: 50.0 mg/kg/injection, schedule: Q01DX009 (ip), vehicle: saline); 0 of 3 under setting [1]; 0 of 3 under setting [2]; 0 of 3 (dose: 200.0 mg/kg/injection, schedule: Q04DX002 (ip), vehicle: other); 0 of 3 (dose: 400.0 mg/kg/injection, schedule: Q04DX002 (ip), vehicle: other).
Consider `CC1(C(Cl)Cl)CCCCC1=O` (stereo not drawn), for which the survivor count reads like this: (dose: 200.0 mg/kg/injection, schedule: Q01DX001 (ip), vehicle: saline) 3 of 6; under setting [3], 2 of 6.
On to `N#Cc1ccc([N+](=O)[O-])cc1O`, for which, under setting [3], the survivor count was 3 of 6.
In the case of `C=C(C)CC1(CC)C(=O)NC(=S)NC1=O`, the survivor count (dose: 400.0 mg/kg/injection, schedule: Q04DX003 (ip), vehicle: saline with Tween-80) was 3 of 6.
As to `O=C(c1cc(C(F)(F)F)cc(C(F)(F)F)c1)N1CC1`, the survivor count (dose: 25.0 mg/kg/injection, schedule: Q01DX009 (ip), vehicle: water) is given as 5 of 6.
